Reference: patent US11136370B2, “Compositions and methods for thrombin generation assay” (The Scripps Research Institute, priority 2016, dated 2021)
At least one compound was matched to its structure with a doubt left.

How the values were obtained:
immobilized rTF = assay: Blood perfusion over immobilized rTF, volume of platelet aggregates and fibrin; type: cell-based, human; settings: blood of treated patients
Procedure: (§1) Glass coverslips treated with 0.2 mg/ml poly-L-lysine for 6 h at 37° C. were coated with rTF for 18-20 hours at 37° C. or 2.5 mg/ml acid-insoluble type I collagen for 2 hours at 22-25° C. Then they were rinsed with pH 7.4 buffered-saline, assembled in a rectangular flow chamber with a 125 μm-high silicon gasket and positioned on a confocal microscope stage for analysis. Venous blood for testing was collected into final 10.9 mM trisodium citrate using a plastic syringe for normal volunteers or Vacutainer tubes (Becton Dickinson, Buccinasco, Milan) for patients and controls. […]
(§2) Platelets adhering and aggregating onto the surface were visualized by adding quinacrine-HCl (mepacrine; 10 μg/ml; Sigma-Aldrich) to blood. […] This was followed by buffer (DMEM) for 2 minutes to facilitate fibrin quantification by confocal z section analysis using a Zeiss Axiovert 135M/LSM 410 microscope (Carl Zeiss) and Plan-Apochromat×63/1.40 NA oil immersion objective. […] Deposited fibrin volume was measured from confocal sections collected at 4 preset positions in the flow chamber. Total volume of deposited platelets and fibrin was calculated from the sum of the respective area coverage per section multiplied by the z interval (2 μm). […]

[1] = system: fibrillar collagen type I; assay: Blood perfusion over fibrillar collagen type I, volume of platelet aggregates and fibrin; type: cell-based, human; settings: blood of treated patients, collagen surface
Procedure: The volume of platelet aggregates and deposited fibrin was measured by confocal microscopy. Statistical analysis by one-way ANOVA and Tukey post-test. *P<0.05; **P<0.01; ***P<0.001.
as §1, §2

Compound: [H]/N=C(/N)c1ccc(NCc2nc3cc(C(=O)N(CCC(=O)O)c4ccccn4)ccc3n2C)cc1 [dabigatran]
- volume of deposited fibrin (immobilized rTF; higher rTF coating concentration, 300 s^-1, 5 min): markedly reduced fibrin formation
- volume of platelet aggregates vs controls (immobilized rTF; rTF coating 20 and 40 pM): only on the surface with the lower rTF concentration
- mean volume of platelet aggregates vs controls [1]: not significantly different
- volume of deposited fibrin vs controls [1]: markedly reduced
